In paper PMC7819943, “Rice protein-binding microarrays: a tool to detect cis-acting elements near promoter regions in rice”:
The other results are listed elsewhere or left out.

Each sequence was assayed against T1, OsSMF1 (Oryza sativa, UniProt Q6ZLB0 1-436) (assay: protein-binding microarray (RPBM); PBS, 2% BSA, 51.3 ng/ul salmon testes DNA, 50 uM zinc acetate, 200 nM TF, 25 C, 1 h; high values mean tight binding). Details: protein: recombinant; tags: N-terminal polyhistidine and DsRed monomer fusion (pET32a); chain copies: 2; label: CyDye5-dUTP incorporated in the synthesized complementary strand; 3' TTTTT single-stranded linker to array surface; dsDNA, one strand shown.
T1 sequence: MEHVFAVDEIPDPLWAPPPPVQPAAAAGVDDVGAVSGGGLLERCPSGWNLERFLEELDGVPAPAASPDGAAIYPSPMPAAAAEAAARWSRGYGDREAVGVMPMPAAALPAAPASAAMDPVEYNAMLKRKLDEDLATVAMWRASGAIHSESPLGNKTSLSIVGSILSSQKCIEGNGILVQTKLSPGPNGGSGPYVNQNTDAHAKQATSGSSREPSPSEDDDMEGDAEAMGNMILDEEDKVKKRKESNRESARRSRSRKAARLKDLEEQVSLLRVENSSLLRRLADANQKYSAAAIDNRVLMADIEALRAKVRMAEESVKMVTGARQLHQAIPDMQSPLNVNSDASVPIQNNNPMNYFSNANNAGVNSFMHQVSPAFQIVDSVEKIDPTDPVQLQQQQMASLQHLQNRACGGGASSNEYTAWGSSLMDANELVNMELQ
Summary of the method: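 Using Ni–NTA, transcription factors fused N-terminally to polyhistidine and DsRed were purified after expression in E. coli BL21-CodonPlus. These were incubated at 200 nM with a blocked, double-stranded custom Agilent array for 1 h at 25 °C in a buffer containing 50 µM zinc acetate, and the array was washed. The binding signal is per-feature fluorescence intensity (arbitrary units) on an Axon 4000B scanner.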

Sequence | binding signal
GGAGAATTGGACACGTCAGCGTCATCCAGGCTCCCAGCAGCGGAGTCACCTAGTGCAG | 27600 fluorescence intensity (a.u.)
CTACGGTGATGTGCCATGTCCCCTTCATGGGTCAACATGTCGGAGTCACCTAGTGCAG | 3210 fluorescence intensity (a.u.)
CCAACGTGTCCACTCACGGCTTACACGTGCCACGCCCATCCGGAGTCACCTAGTGCAG | 8410 fluorescence intensity (a.u.)
GGAGCACTGTGTAGCGGGTCCTCCAAGTACCTAACCCGTTCGGAGTCACCTAGTGCAG | 3150 fluorescence intensity (a.u.)
CCGATCAACGTTTAATGTGACACCTATAAATTTCTCTTTTCGGAGTCACCTAGTGCAG | 3590 fluorescence intensity (a.u.)
CATGAACTCGGAGGGAGGGATTGGCGCTGGCATAACCAATCGGAGTCACCTAGTGCAG | 18200 fluorescence intensity (a.u.)
CGTGAAAGTGCTTCGAAAGGTGTCAGCAGGTGCGCGGAGCCGGAGTCACCTAGTGCAG | 3530 fluorescence intensity (a.u.)
GGCCGCGGGTGACACGGAGGCAGCCTTCCTGTCCACCTGCCGGAGTCACCTAGTGCAG | 4690 fluorescence intensity (a.u.)
GAGTGGGCTTACCGCCACCCGCGGTTTGGCAGTTATCGCGCGGAGTCACCTAGTGCAG | 3520 fluorescence intensity (a.u.)
GGAGCTCCACAGAACTACAGCTCATCATTGGTGTAAGAGGCGGAGTCACCTAGTGCAG | 3690 fluorescence intensity (a.u.)
ATGGCAACAGCAGCAGCCGTACGTTGCCGTCGCCGTCACGCGGAGTCACCTAGTGCAG | 4060 fluorescence intensity (a.u.)
CCCCTAACCCAATCTGGAGTGGTTTTGATCCTACGTGGCACGGAGTCACCTAGTGCAG | 26700 fluorescence intensity (a.u.)
CTAGAGGAAGTGGGGAAGCCGACGACCCCACGTCTCGCCACGGAGTCACCTAGTGCAG | 3940 fluorescence intensity (a.u.)
AGAATGTATGCTATGTATGTATAAGTGTAAATACATGTGGCGGAGTCACCTAGTGCAG | 3510 fluorescence intensity (a.u.)
GTGCGTATGTGTTGTGAGTATCTGTGTTGTACTGTGTAATCGGAGTCACCTAGTGCAG | 3530 fluorescence intensity (a.u.)
GCCTACGAAGCCGGAGCCTACGAGGAGCCAAGTCATCGGGCGGAGTCACCTAGTGCAG | 6200 fluorescence intensity (a.u.)
ACTCGCCCGGTGTGCTGCAGCCTGCAGCCGCCGCCGTCAGCGGAGTCACCTAGTGCAG | 3420 fluorescence intensity (a.u.)
CTCTTACCCTGAATTTCTGTCATTAACACAATGGCTCAGGCGGAGTCACCTAGTGCAG | 3440 fluorescence intensity (a.u.)
TTTTCATTTCAGACGTGTGCAACTCTCTGTTCTTTACTCCCGGAGTCACCTAGTGCAG | 5130 fluorescence intensity (a.u.)
GGATTGGCGACTCGACGTTGACAACATGACATATGAGGTACGGAGTCACCTAGTGCAG | 4210 fluorescence intensity (a.u.)
ACAGGATGCGTCTTCACATATGACGTGGTTGAGGCTTATGCGGAGTCACCTAGTGCAG | 11200 fluorescence intensity (a.u.)
AGACATCTTGATCTCAAGACGTCACATAGGACAGAACCACCGGAGTCACCTAGTGCAG | 4480 fluorescence intensity (a.u.)
CTCCATCTCGGCCGTCCGTACCTACACGTGTAGGCCGATCCGGAGTCACCTAGTGCAG | 3830 fluorescence intensity (a.u.)
TAATGAATTAGGGCATTGGATGTACCAACTTATGTTATATCGGAGTCACCTAGTGCAG | 23300 fluorescence intensity (a.u.)
GACTGTTTCGATTAGGCCAGCAACCTCACCTCTCCTATATCGGAGTCACCTAGTGCAG | 5030 fluorescence intensity (a.u.)
ACCTGCACACCCACGACACGTCGCGCCGCTCATGCCCTTTCGGAGTCACCTAGTGCAG | 5650 fluorescence intensity (a.u.)
GTTTGGAAACTTCTCTCGTGCGAAAGTTAAACGGGATGATCGGAGTCACCTAGTGCAG | 3180 fluorescence intensity (a.u.)

Three records drawn at random from those above, as already listed:
Sequence | binding signal
GACTGTTTCGATTAGGCCAGCAACCTCACCTCTCCTATATCGGAGTCACCTAGTGCAG | 5030 fluorescence intensity (a.u.)
GGAGCTCCACAGAACTACAGCTCATCATTGGTGTAAGAGGCGGAGTCACCTAGTGCAG | 3690 fluorescence intensity (a.u.)
GAGTGGGCTTACCGCCACCCGCGGTTTGGCAGTTATCGCGCGGAGTCACCTAGTGCAG | 3520 fluorescence intensity (a.u.)

The listing continues.

Sequence | binding signal
CGTCATTCGAGCCCACTAACATTAACGAGCCACGTTTATTCGGAGTCACCTAGTGCAG | 4180 fluorescence intensity (a.u.)
GGTCGCGTCGCCCCGCTCCAACTCTCCAAGCGGAAACACACGGAGTCACCTAGTGCAG | 11600 fluorescence intensity (a.u.)
GATGGGGTGAGTTCTGGGCGTATCCACGTAGGATTTCTACCGGAGTCACCTAGTGCAG | 8320 fluorescence intensity (a.u.)
TAGCTCTGGCGGTGATGGGCGGTGATGCAGAGGAGACAAGCGGAGTCACCTAGTGCAG | 32300 fluorescence intensity (a.u.)
CACTTCTCCACGACGACGCGTCCTCCGCTGTATATGCCCCCGGAGTCACCTAGTGCAG | 4280 fluorescence intensity (a.u.)
CTGTGGGCCAGCGCCCACGGTGTCACGCCCGCGCACACCTCGGAGTCACCTAGTGCAG | 3870 fluorescence intensity (a.u.)
TGAGCCCCGCCGTGGCACCGCGTGTCGACCTCGTGGTGCTCGGAGTCACCTAGTGCAG | 5800 fluorescence intensity (a.u.)
GTACTACTCCCTCCGTTTCTCCCTCCGTTTCAAAATGTTTCGGAGTCACCTAGTGCAG | 3220 fluorescence intensity (a.u.)
TAATGAATCTAGTCAGATATACGCATCTAGATTTATTAACCGGAGTCACCTAGTGCAG | 4390 fluorescence intensity (a.u.)
CGCACGTACACACCACACCGGCCTACGTGGGTGTATCCTACGGAGTCACCTAGTGCAG | 5500 fluorescence intensity (a.u.)
AGCTCGCGGATTTTGGCTGCCGCGTGTATAAATGCTCCCGCGGAGTCACCTAGTGCAG | 6120 fluorescence intensity (a.u.)
TGAGACTAGCTAAGTACACATCCCCAGCCTAGCCGAGTCACGGAGTCACCTAGTGCAG | 3570 fluorescence intensity (a.u.)
CCGGCCAACTAAAATGGGCCGCACGTCAGCCGCACAATTACGGAGTCACCTAGTGCAG | 5670 fluorescence intensity (a.u.)
CCCCACATGCTGACATGTCCCCACTCGATCGTCGATCCCCCGGAGTCACCTAGTGCAG | 8720 fluorescence intensity (a.u.)
TAATTCGGTTCCCTGACACGGCTGTCGCCGCGGAAACCGTCGGAGTCACCTAGTGCAG | 3150 fluorescence intensity (a.u.)
ACAAACTCTATCCCTACGTCATATCTGAAGATTCTTTTCTCGGAGTCACCTAGTGCAG | 4480 fluorescence intensity (a.u.)
GGACTCGGACCAGTCAGGCCCACAATTGTTGCGCTCAGCCCGGAGTCACCTAGTGCAG | 31700 fluorescence intensity (a.u.)
CTGCGCATGCCGGCTCTAATGATGTGACAATGCAATGGCACGGAGTCACCTAGTGCAG | 4300 fluorescence intensity (a.u.)
TGCTCTAGTACACCTCATAATTACGTTAGCCAACTTTAGCCGGAGTCACCTAGTGCAG | 5540 fluorescence intensity (a.u.)
GAAATTCAAATTCAAATTATTGAAACCGAGTCATATAGCACGGAGTCACCTAGTGCAG | 3190 fluorescence intensity (a.u.)
TCCACCTTCTCTCATATCACCACAGTCATCTTGCCAAGTGCGGAGTCACCTAGTGCAG | 4740 fluorescence intensity (a.u.)
GCGTGCCAGCAAGTATTATGCTGGCAGCTTCCAACAGGAACGGAGTCACCTAGTGCAG | 3760 fluorescence intensity (a.u.)
TGATTAATTAACCGAAAAGTGTGTAAAGCAAATGTTTTGGCGGAGTCACCTAGTGCAG | 27100 fluorescence intensity (a.u.)
ATGCACGCATGACGCCATCGTTGCTCGCGAGTGTGCTCACCGGAGTCACCTAGTGCAG | 4450 fluorescence intensity (a.u.)
CGGCTAGAGGGAGTATTACGTCACATCAAAGGGTGGAAAACGGAGTCACCTAGTGCAG | 6460 fluorescence intensity (a.u.)
AGGAGGAGGAGGAGGAGGAGGGGATTGTGACTTGTGATCTCGGAGTCACCTAGTGCAG | 3890 fluorescence intensity (a.u.)
AGCAGTTTTGAAGTGTGACGTAAGCATGGAAAACAAGAACCGGAGTCACCTAGTGCAG | 5670 fluorescence intensity (a.u.)
